Measured values reported in patent US10421778B2 (WASHINGTON UNIVERSITY, priority 2015, dated 2019).

Experiments:
peptide synthesis = conditions: late stage modification step
[1] = general procedure: solution-phase peptide synthesis; mixed anhydride; HATU; EDCl; DPPA (macrolactamization)
[2] = late stage modification step, LC-MS

Cyclo-Asp(^DPro-Pro-Val)-NHCH2CH2CH2S(═O)2CH3
final LC-MS purity (peptide synthesis): >99% | step yield (peptide synthesis): 83%

Cyclo-^DAsp(Pro-^DPro-Val)-NHCH2CH2SH
step yield ([1]; late stage modification step): 71% | purity (crude or final not stated) [1, 2]: >99%

Boc-Asp(Pro-^DPro-Val-O^tBu)-OBn
step yield ([1]; coupling step): yield: 73%

Cyclo-^DAsp(Pro-^DPro-Val)-NHCH2CH2CH2CONHOH
step yield ([1]; late stage modification step): 87% | final LC-MS purity [1, 2]: >99%

Cyclo-Asp(^DPro-Pro-Val)-NHCH2CH2CH2CONHOH
final LC-MS purity (peptide synthesis): >99% | step yield (peptide synthesis): 87%

Cyclo-Asp(Pro-^DPro-Val)-NHCH2CH2CH2SH
step yield ([1]; late stage modification step): 88% | purity (crude or final not stated) [1, 2]: >99%

[Cyclo-^DAsp(^DPro-Pro-Val)-NHCH2CH2S]2
conjugation yield ([1]; conjugation step): yield, 78% | final LC-MS purity ([1]; conjugation step, LC-MS): 98%

[Cyclo-Asp(^DPro-Pro-Val)-NHCH2CH2S]2
conjugation yield ([1]; conjugation step): yield, 82% | final LC-MS purity ([1]; conjugation step, LC-MS): >99%

Cyclo-^DAsp(^DPro-Pro-Val)-OBn
cyclisation yield ([1]; cyclisation step): yield, 78% | final LC-MS purity ([1]; cyclisation step, LC-MS): 99%

Cyclo-Asp(Pro-^DPro-Val)-NHCH2CH2SH
step yield ([1]; late stage modification step): 74% | purity (crude or final not stated) [1, 2]: >99%

Cyclo-^DAsp(^DPro-Pro-Val)-NHCH2CH2S—SCH2CH2NHP(O)(OPh)
step yield ([1]; late stage modification step): 56% | final LC-MS purity [1, 2]: >99%

Cyclo-^DAsp(^DPro-Pro-Val)-NHCH2CH2CH2COOH
step yield ([1]; late stage modification step): 95% | final LC-MS purity [1, 2]: >99%

Cyclo-^DAsp(Pro-^DPro-Val)-NHCH2CH2S—SCH2CH2NH2
step yield ([1]; late stage modification step): 65% | final LC-MS purity [1, 2]: 97%

[Cyclo-Asp(Pro-^DPro-Val)-NHCH2CH2S]2
conjugation yield ([1]; conjugation step): 77% | final LC-MS purity ([1]; conjugation step, LC-MS): >99%

Cyclo-^DAsp(^DPro-Pro-Val)-NHCH2CH2SH
step yield ([1]; late stage modification step): yield, 80% | final LC-MS purity [1, 2]: >99%

Cyclo-^DAsp(Pro-^DPro-Val)-NHCH2CH2CH2COOMe
step yield ([1]; late stage modification step): 85% | final LC-MS purity [1, 2]: >98%

Cyclo-DAsp(Pro-DPro-Val)-OH
step yield ([1]; late stage modification step): 91% | purity (crude or final not stated) [1, 2]: 97%

Cyclo-Asp(Pro-^DPro-Val)-NHCH2CH2CH2COOMe
final LC-MS purity (peptide synthesis): 98% | step yield (peptide synthesis): 86%

Cyclo-^DAsp(^DPro-Pro-Val)-NHCH2CH2CH2SH
step yield ([1]; late stage modification step): yield, 85% | final LC-MS purity [1, 2]: >99%

Cyclo-^DAsp(^DPro-Pro-Val)-NHCH2CH2CH2SCH3
step yield ([1]; late stage modification step): yield, 65% | final LC-MS purity [1, 2]: 98%

Cyclo-^DAsp(Pro-^DPro-Val)-OBn
cyclisation yield ([1]; cyclisation step): 73% | final LC-MS purity ([1]; cyclisation step, LC-MS): >99%

[Cyclo-Asp(Pro-^DPro-Val)-NHCH2CH2CH2S]2
conjugation yield ([1]; conjugation step): 67% | final LC-MS purity ([1]; conjugation step, LC-MS): >99%

Boc-^DAsp(^DPro-Pro-Val-O^tBu)-OBn
step yield ([1]; coupling step): yield: 77%

Cyclo-Asp(^DPro-Pro-Val)-NHCH2CH2CH2COOH
final LC-MS purity (peptide synthesis): >99% | step yield (peptide synthesis): 94%

Cyclo-^DAsp(^DPro-Pro-Val)-NHCH2CH2CH2CONHOH
step yield ([1]; late stage modification step): 85% | final LC-MS purity [1, 2]: 99%

[Cyclo-^DAsp(Pro-^DPro-Val)-NHCH2CH2CH2S]2
conjugation yield ([1]; conjugation step): 63% | final LC-MS purity ([1]; conjugation step, LC-MS): >99%

Cyclo-^DAsp(^DPro-Pro-Val)-NHCH2CH2S—SCH2CH2NH2
step yield ([1]; late stage modification step): 67% | final LC-MS purity [1, 2]: 97%

Cyclo-Asp(^DPro-Pro-Val)-NHCH2CH2CH2SCH3
final LC-MS purity (peptide synthesis): >99% | step yield (peptide synthesis): yield, 68%

Cyclo-^DAsp(Pro-^DPro-Val)-NHCH2CH2CH2SCH3
step yield ([1]; late stage modification step): 70% | final LC-MS purity [1, 2]: 98%

Cyclo-Asp(^DPro-Pro-Val)-OH
step yield ([1]; late stage modification step): yield, 96% | purity (crude or final not stated) [1, 2]: >99%

Cyclo-Asp(Pro-^DPro-Val)-NHCH2CH2S—SCH2CH2NH2
step yield ([1]; late stage modification step): 69% | final LC-MS purity [1, 2]: 96%

Cyclo-Asp(^DPro-Pro-Val)-NHCH2CH2S—SCH2CH2NHP(O)(OPh)
step yield ([1]; late stage modification step): 52% | final LC-MS purity [1, 2]: >99%

Cyclo-Asp(^DPro-Pro-Val)-NHCH2CH2SH
step yield ([1]; late stage modification step): yield, 87% | final LC-MS purity [1, 2]: >99%

Cyclo-^DAsp(Pro-^DPro-Val)-NHCH2CH2CH2COOH
step yield ([1]; late stage modification step): 95% | final LC-MS purity [1, 2]: >99%

Cyclo-Asp(Pro-^DPro-Val)-NHCH2CH2CH2SCH3
final LC-MS purity (peptide synthesis): 97% | step yield (peptide synthesis): 70%

Cyclo-Asp(Pro-^DPro-Val)-NHCH2CH2CH2S(═O)2CH3
final LC-MS purity (peptide synthesis): >99% | step yield (peptide synthesis): 89%

Cyclo-^DAsp(^DPro-Pro-Val)-NHCH2CH2CH2COOMe
step yield ([1]; late stage modification step): 85% | final LC-MS purity [1, 2]: >99%

Cyclo-Asp(^DPro-Pro-Val)-NHCH2CH2CH2OH
step yield ([1]; late stage modification step): 60% | final LC-MS purity [1, 2]: >97%

Cyclo-^DAsp(Pro-^DPro-Val)-NHCH2CH2CH2SH
step yield ([1]; late stage modification step): 87% | purity (crude or final not stated) [1, 2]: >99%

Cyclo-Asp(Pro-^DPro-Val)-OH
step yield ([1]; late stage modification step): 94% | purity (crude or final not stated) [1, 2]: >99%

[Cyclo-^DAsp(^DPro-Pro-Val)-NHCH2CH2CH2S]2
conjugation yield ([1]; conjugation step): yield, 67% | final LC-MS purity ([1]; conjugation step, LC-MS): 99%

Cyclo-Asp(^DPro-Pro-Val)-NHCH2CH2CH2COOMe
final LC-MS purity (peptide synthesis): >99% | step yield (peptide synthesis): 86%

Cyclo-^DAsp(Pro-^DPro-Val)-NHCH2CH2CH2S(═O)2CH3
step yield ([1]; late stage modification step): 83% | final LC-MS purity [1, 2]: 99%

Cyclo-Asp(^DPro-Pro-Val)-NHCH2CH2CH2SH
step yield ([1]; late stage modification step): yield, 79% | final LC-MS purity [1, 2]: >99%

Boc-Asp(^DPro-Pro-Val-O^tBu)-OBn
step yield ([1]; coupling step): yield: 75%

Boc-^DAsp(Pro-^DPro-Val-O^tBu)-OBn
step yield ([1]; coupling step): yield: 66%

Cyclo-Asp(Pro-^DPro-Val)-NHCH2CH2CH2COOH
final LC-MS purity (peptide synthesis): >99% | step yield (peptide synthesis): 93%

[Cyclo-DAsp(Pro-DPro-Val)-NHCH2CH2S]2
conjugation yield ([1]; conjugation step): 73% | final LC-MS purity ([1]; conjugation step, LC-MS): >99%

Cyclo-Asp(^DPro-Pro-Val)-OBn
cyclisation yield ([1]; cyclisation step): yield, 79% | final LC-MS purity ([1]; cyclisation step, LC-MS): 99%

Cyclo-^DAsp(^DPro-Pro-Val)-NHCH2CH2CH2S(═O)2CH3
step yield ([1]; late stage modification step): 85% | final LC-MS purity [1, 2]: 97%

Cyclo-^DAsp(^DPro-Pro-Val)-NHCH2CH2CH2OH
step yield ([1]; late stage modification step): 75% | final LC-MS purity [1, 2]: >99%

[Cyclo-Asp(^DPro-Pro-Val)-NHCH2CH2CH2S]2
conjugation yield ([1]; conjugation step): yield, 65% | final LC-MS purity ([1]; conjugation step, LC-MS): >99%

Cyclo-Asp(^DPro-Pro-Val)-NHCH2CH2S—SCH2CH2NH2
step yield ([1]; late stage modification step): 65% | final LC-MS purity [1, 2]: >99%

Cyclo-^DAsp(^DPro-Pro-Val)-OH
step yield ([1]; late stage modification step): yield, 94% | purity (crude or final not stated) [1, 2]: >99%

Cyclo-Asp(Pro-^DPro-Val)-NHCH2CH2CH2CONHOH
final LC-MS purity (peptide synthesis): 99% | step yield (peptide synthesis): 86%

Boc-Acp-Leu-Gly-Lys(Ac)-Cumarin Tetrapeptide
step yield ([1]; coupling step): yield: 85%

TFA.Acp-Leu-Gly-Lys(Ac)-Cumarin Tetrapeptide
step yield ([1]; late stage modification step): yield: 97% | crude LC-MS purity [1, 2]: >98%

Cyclo-Asp(Pro-^DPro-Val)-OBn
cyclisation yield ([1]; cyclisation step): 67% | final LC-MS purity ([1]; cyclisation step, LC-MS): >97%
